Data from patent US7517857B2, “Immune-modulating peptide” (POSCO, priority 2002, dated 2009).
For some of these results: Part of at least one peptide drawing is inferred or uncertain, most often the ends. For some of these results: At least one structure is not confirmed: it was looked up by name or label, or the drawing left a doubt. Where a SMILES comes first, the peptide text is derived from it. [ ]: non-standard residue; d: D form.

What was measured:
Assay type in all cases: cell-based
[1] = tested on: human neutrophils; test: Superoxide generation in human neutrophils (cytochrome c reduction)
Experimental: Peripheral blood leukocyte concentrates were donated by the Ulsan Red Cross Blood Center (Ulsan, Korea). Human neutrophils were isolated according to the standard procedures of dextran sedimentation, hypotonic lysis of erythrocytes, and a lymphocyte separation medium gradient as described above (9). The isolated human neutrophils were then used promptly.
The activity of the peptides, WKYMVm, peptides of SEQ ID NOs: 1 to 24, and wkymvm on superoxide generation in human neutrophils was measured. Superoxide anion generation was quantified by measuring reduction of cytochrome c using a microtiter 96-well plate ELISA reader (Bio-Tekinstruments, EL312e, Winooski, Vt.) as described (14). The human neutrophils (1×10^6 cells/100 μl of RPMI 1640 medium per well of a 96-well plate) were preincubated with 50 μM cytochrome c at 37° C. for 1 min and then incubated with the indicated concentrations of peptides. The superoxide generation was measured as a change in light absorption at 550 nm over 5 minutes at 1 min intervals. From at least four independent experiments, peptides with active amino acids at each position were chosen.

[2] = biological target: T1, FPR (Homo sapiens, UniProt P21462); test: ERK phosphorylation in FPR-expressing RBL-2H3 cells (immunoblot); settings: pretreatment prior to 1 μM WKYMVm, PTX 100 ng/ml, LY294002 50 μM, GFX 5 μM, BAPTA/AM 10 μM, PD98059 50 μM
T1 construct: expressed in transfected cells; host or cells: RBL-2H3 (rat basophilic leukemia) cells, G418-selected
T1 sequence (P21462 1-350): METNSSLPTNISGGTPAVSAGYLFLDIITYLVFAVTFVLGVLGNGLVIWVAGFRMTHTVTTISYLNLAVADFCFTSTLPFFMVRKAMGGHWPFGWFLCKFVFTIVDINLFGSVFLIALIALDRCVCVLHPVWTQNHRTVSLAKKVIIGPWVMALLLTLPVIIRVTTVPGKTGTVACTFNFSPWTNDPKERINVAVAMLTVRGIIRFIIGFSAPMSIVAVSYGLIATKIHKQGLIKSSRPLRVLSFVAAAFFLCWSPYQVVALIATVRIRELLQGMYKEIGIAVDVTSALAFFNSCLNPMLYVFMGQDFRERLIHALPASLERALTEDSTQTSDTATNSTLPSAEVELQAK
Experimental: (§1) Cultured RBL-2H3 cells were aliquoted into 2×10^6 cells and stimulated with the indicated concentrations of WKYMVm and the peptides of the present invention for the indicated lengths of time. FPR- or FPRL1-expressing RBL-2H3 cells were stimulated with 1 μM WKYMVm for various periods of time (FIG. 3A). Two cells were preincubated with a vehicle or 100 ng/ml of PTX (24 hr), 50 μM of LY294002 (15 min), 5 μM of GFX (15 min), 10 μM BAPTA/AM (60 min), or 50 μM PD98059 (60 min) prior to 1 μM of WKYMVm treatment (FIG. 3B). FPR- or FPRL1-expressing RBL2H3 cells were stimulated with 10 μM of the peptides of the present invention for 2 min or 5 min, respectively (FIG. 3C).
(§2) After stimulation, the cells were washed with serum-free RPMI and lysed in a lysis buffer (20 mM Hepes, pH 7.2, 10% glycerol, 150 mM NaCl, 1% Triton X-100, 50 mM NaF, 1 mM Na3VO4, 10 μg/ml leupeptin, 10 μg/ml aprotinin, and 1 mM phenylmethylsulfonyl fluoride). The detergent-insoluble materials were pelleted by centrifugation (12,000×g, 15 min, at 4° C.), and the soluble supernatant fraction was removed and stored at −80° C. or used immediately. Protein concentrations in the lysates were determined using the Bradford protein assay reagent.
(§3) Each sample ([…] of protein) was subjected to 10% SDS-PAGE and phosphorylated ERK was determined by an immunoblot analysis with an anti-phospho-ERK antibody. […]

[3] = biological target: T2, FPRL1 (Homo sapiens, UniProt P25090); test: ERK phosphorylation in FPRL1-expressing RBL-2H3 cells (immunoblot); settings: pretreatment prior to 1 μM WKYMVm, PTX 100 ng/ml, LY294002 50 μM, GFX 5 μM, BAPTA/AM 10 μM, PD98059 50 μM
T2 construct: expressed in transfected cells; host or cells: RBL-2H3 (rat basophilic leukemia) cells, G418-selected
T2 sequence (P25090 1-351): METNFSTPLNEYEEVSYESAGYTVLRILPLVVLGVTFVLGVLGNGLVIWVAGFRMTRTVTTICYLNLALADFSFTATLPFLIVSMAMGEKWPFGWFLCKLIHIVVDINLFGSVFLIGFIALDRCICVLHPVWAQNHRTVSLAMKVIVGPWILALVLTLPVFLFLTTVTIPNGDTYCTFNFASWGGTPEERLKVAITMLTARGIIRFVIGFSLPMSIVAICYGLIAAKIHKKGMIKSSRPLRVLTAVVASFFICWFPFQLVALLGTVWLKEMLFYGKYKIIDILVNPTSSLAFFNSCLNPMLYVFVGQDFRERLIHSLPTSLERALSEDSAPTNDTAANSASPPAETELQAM
Experimental: as §1, §2, §3

[4] = biological target: T1, FPR; test: Akt phosphorylation in FPR-expressing RBL-2H3 cells (immunoblot); settings: pretreatment prior to 1 μM WKYMVm
Experimental: (§4) It is well known that activation of chemoattractant receptors induces Akt activation via PI3K (19). Stimulation of cells with the peptides, electrophoresis and immunoblot analysis were performed according to the same method as in Example 5.
(§5) FPR- or FPRL1-expressing RBL-2H3 cells were stimulated with 1 μM WKYMVm for various periods of time (FIG. 4A). Two cells were preincubated with a vehicle or 100 ng/ml of PTX (24 hr), 50 μM of LY294002 (15 min), 5 μM of GFX (15 min), 10 μM BAPTA/AM (60min), or 50 μM PD98059 (60 min) prior to treatment with 1 μM of WKYMVm (FIG. 4B). FPR- and FPRL1-expressing RBL2H3 cells were stimulated with 10 μM of WKYMVm and the present peptides for 2 min or 5 min, respectively (FIG. 4C). Each sample (30 μg of protein) was subjected to 10% SDS-PAGE and phosphorylated Akt was determined by immunoblot analysis with an anti-phospho-Akt antibody. A western blot analysis with an anti-Akt antibody was performed to confirm that the same amounts of samples were used for the experiments. The results are shown FIGS. 4A to 4C. Results of FIGS. 4A to 4C are the representative of 3 independent experiments.

[5] = biological target: T2, FPRL1; test: Akt phosphorylation in FPRL1-expressing RBL-2H3 cells (immunoblot); settings: pretreatment prior to 1 μM WKYMVm
Experimental: as §4, §5

[6] = biological target: T1, FPR; test: Chemotaxis of FPR-expressing RBL-2H3 cells (modified Boyden chamber); settings: 50 μM LY294002 (15 min), 50 μM PD98059 (60 min), 1 μM WKYMVm
Experimental: (§6) Chemotaxis assays were performed using multiwell chambers (modified Boyden chamber assay) (Neuroprobe Inc., Gaithersburg, Md.) (18). Briefly, polycarbonate filters (8 μm pore size) were precoated with 50 μg/ml of rat type I collagen (Collaborative Biomedicals) in a HEPES-buffered RPMI 1640 medium. A dry coated filter was placed on a 96-well chamber containing different concentrations of peptides. RBL-2H3 cells expressing FPR or FPRL1 were suspended in RPMI at a concentration of 1×10^6 cells/ml of serum-free RPMI, and 25 μl of the suspension were placed onto the upper well of the 96-well chemotaxis chamber. After incubation for 4 hours at 37° C., non-migrated cells were removed by scraping them out, and cells that migrated across the filter were dehydrated, fixed, and stained with hematoxylin (Sigma, St. Louis, Mo.). The stained cells in five randomly chosen high power fields (HPF) (400×) in that well were then counted. […] The numbers of migrated cells were determined by counting them in a high power field (400×). The Data are presented as means ±SE of three independent experiments each performed in duplicate. The effect of the peptides of the present invention on cellular chemotaxis in FPR- or FPRL1-expressing RBL-2H3 cells was measured. […] The numbers of migrated cells were determined by counting them in a high power field (400×). […]

[7] = biological target: T2, FPRL1; test: Chemotaxis of FPRL1-expressing RBL-2H3 cells (modified Boyden chamber); settings: 50 μM LY294002 (15 min), 50 μM PD98059 (60 min), 1 μM WKYMVm
Experimental: as §6

Row | Compound | O^2− (nmol/10^6 cells), superoxide generation ([1]; peptide 100 nM) [nmol/10^6 cells] | O^2− (nmol/10^6 cells), superoxide generation ([1]; peptide 10 μM) [nmol/10^6 cells] | effect of inhibitor pretreatment on WKYMVm-induced ERKs activation [2] | effect of inhibitor pretreatment on WKYMVm-induced ERKs activation [3] | effect of inhibitor pretreatment on WKYMVm-induced Akt phosphorylation [4] | effect of inhibitor pretreatment on WKYMVm-induced Akt phosphorylation [5] | effect of inhibitor pretreatment on WKYMVm-induced cellular chemotaxis [6] | effect of inhibitor pretreatment on WKYMVm-induced cellular chemotaxis [7]
1 | CSCC[C@H](NC(=O)[C@H](Cc1ccc(O)cc1)NC(=O)[C@@H](N)CCCCN)C(=O)N[C@H](C(N)=O)C(C)C [KYMV-NH2, Lys-Tyr-Met-Val-NH2] (H-KYMV-NH2) | 7.5 ± 0.61 | 35.4 ± 2.13 |  |  |  |  |  | 
2 | O=c1cc(N2CCOCC2)oc2c(-c3ccccc3)cccc12 [LY294002, reference compound] |  |  | could not effect WKYMVm-induced ERK activation | could not effect WKYMVm-induced ERK activation | sensitive | sensitive | sensitive | sensitive
3 | CSCC[C@H](N)C(=O)N[C@H](C(=O)N[C@H](CCSC)C(N)=O)C(C)C [MVm-NH2, Met-Val-D-Met-NH2] (H-Met-Val-[dM]-NH2) | 0 | 42.4 ± 2.47 |  |  |  |  |  | 
